Patent US20150329644A1
These are yes or no findings as the source states them, for the method shown. For part of these data: Binding seen in cells or lysates may run through a third protein. Some binding calls cover weakened binding; strength is not graded here. Where a sequence is shown, tags or fusion partners need not be part of it.

B1: FLAG-HA tagged LSD2 bait protein (stably expressed in HeLa, tandem affinity purified) (enzyme, human, UniProt Q8NB78 1-822, looked up, not shown: small tags and cut ends)
chain: MATPRGRTKKKASFDHSPDSLPLRSSGRQAKKKATETTDEDEDGGSEKKYRKCEKAGCTATCPVCFASASERCAKNGYTSRWYHLSCGEHFCNECFDHYYRSHKDGYDKYTTWKKIWTSNGKTEPSPKAFMADQQLPYWVQCTKPECRKWRQLTKEIQLTPQIAKTYRCGMKPNTAIKPETSDHCSLPEDLRVLEVSNHWWYSMLILPPLLKDSVAAPLLSAYYPDCVGMSPSCTSTNRAAATGNASPGKLEHSKAALSVHVPGMNRYFQPFYQPNECGKALCVRPDVMELDELYEFPEYSRDPTMYLALRNLILALWYTNCKEALTPQKCIPHIIVRGLVRIRCVQEVERILYFMTRKGLINTGVLSVGADQYLLPKDYHNKSVIIIGAGPAGLAAARQLHNFGIKVTVLEAKDRIGGRVWDDKSFKGVTVGRGAQIVNGCINNPVALMCEQLGISMHKFGERCDLIQEGGRITDPTIDKRMDFHFNALLDVVSEWRKDKTQLQDVPLGEKIEEIYKAFIKESGIQFSELEGQVLQFHLSNLEYACGSNLHQVSARSWDHNEFFAQFAGDHTLLTPGYSVIIEKLAEGLDIQLKSPVQCIDYSGDEVQVTTTDGTGYSAQKVLVTVPLALLQKGAIQFNPPLSEKKMKAINSLGAGIIEKIALQFPYRFWDSKVQGADFFGHVPPSASKRGLFAVFYDMDPQKKHSVLMSVIAGEAVASVRTLDDKQVLQQCMATLRELFKEQEVPDPTKYFVTRWSTDPWIQMAYSFVKTGGSGEAYDIIAEDIQGTVFFAGEATNRHFPQTVTGAYLSGVREASKIAAF
B2: GST-LSD2 recombinant protein (enzyme, human, UniProt Q8NB78 1-822, looked up, not shown: a dimerising Fc or GST)
chain: MATPRGRTKKKASFDHSPDSLPLRSSGRQAKKKATETTDEDEDGGSEKKYRKCEKAGCTATCPVCFASASERCAKNGYTSRWYHLSCGEHFCNECFDHYYRSHKDGYDKYTTWKKIWTSNGKTEPSPKAFMADQQLPYWVQCTKPECRKWRQLTKEIQLTPQIAKTYRCGMKPNTAIKPETSDHCSLPEDLRVLEVSNHWWYSMLILPPLLKDSVAAPLLSAYYPDCVGMSPSCTSTNRAAATGNASPGKLEHSKAALSVHVPGMNRYFQPFYQPNECGKALCVRPDVMELDELYEFPEYSRDPTMYLALRNLILALWYTNCKEALTPQKCIPHIIVRGLVRIRCVQEVERILYFMTRKGLINTGVLSVGADQYLLPKDYHNKSVIIIGAGPAGLAAARQLHNFGIKVTVLEAKDRIGGRVWDDKSFKGVTVGRGAQIVNGCINNPVALMCEQLGISMHKFGERCDLIQEGGRITDPTIDKRMDFHFNALLDVVSEWRKDKTQLQDVPLGEKIEEIYKAFIKESGIQFSELEGQVLQFHLSNLEYACGSNLHQVSARSWDHNEFFAQFAGDHTLLTPGYSVIIEKLAEGLDIQLKSPVQCIDYSGDEVQVTTTDGTGYSAQKVLVTVPLALLQKGAIQFNPPLSEKKMKAINSLGAGIIEKIALQFPYRFWDSKVQGADFFGHVPPSASKRGLFAVFYDMDPQKKHSVLMSVIAGEAVASVRTLDDKQVLQQCMATLRELFKEQEVPDPTKYFVTRWSTDPWIQMAYSFVKTGGSGEAYDIIAEDIQGTVFFAGEATNRHFPQTVTGAYLSGVREASKIAAF
B3: GST-NPAC (GST tagged wild-type full-length NPAC) (protein, not shown: a dimerising Fc or GST)
chain: MAAVSLRLGDLVWGKLGRYPPWPGKIVNPPKDLKKPRGKKCFFVKFFGTEDHAWIKVEQLKPYHAHKEEMIKINKGKRFQQAVDAVEEFLRRAKGKDQTSSHNSSDDKNRRNSSEERSRPNSGDEKRKLSLSEGKVKKNMGEGKKRVSSGSSERGSKSPLKRAQEQSPRKRGRPPKDEKDLTIPESSTVKGMMAGPMAAFKWQPTASEPVKDADPHFHHFLLSQTEKPAVCYQAITKKLKICEEETGSTSIQAADSTAVNGSITPTDKKIGFLGLGLMGSGIVSNLLKMGHTVTVWNRTAEKCDLFIQEGARLGRTPAEVVSTCDITFACVSDPKAAKDLVLGPSGVLQGIRPGKCYVDMSTVDADTVTELAQVIVSRGGRFLEAPVSGNQQLSNDGMLVILAAGDRGLYEDCSSCFQAMGKTSFFLGEVGNAAKMMLIVNMVQGSFMATIAEGLTLAHVTGQSQQTLLDILNQGQLASIFLDQKCQNILQGNFKPDFYLKYIQKDLRLAIALGDAVNHPTPMAAAANEVYKRAKALDQSDNDMSAVYRAYIH
B4: GST-NP.d2 (NPAC residues 1-252) (protein, not shown: a dimerising Fc or GST)
chain: MAAVSLRLGDLVWGKLGRYPPWPGKIVNPPKDLKKPRGKKCFFVKFFGTEDHAWIKVEQLKPYHAHKEEMIKINKGKRFQQAVDAVEEFLRRAKGKDQTSSHNSSDDKNRRNSSEERSRPNSGDEKRKLSLSEGKVKKNMGEGKKRVSSGSSERGSKSPLKRAQEQSPRKRGRPPKDEKDLTIPESSTVKGMMAGPMAAFKWQPTASEPVKDADPHFHHFLLSQTEKPAVCYQAITKKLKICEEETGSTSIQ
B5: GST-NP.d3 (NPAC residues 152-252, linker region) (protein, not shown: a dimerising Fc or GST)
chain: SERGSKSPLKRAQEQSPRKRGRPPKDEKDLTIPESSTVKGMMAGPMAAFKWQPTASEPVKDADPHFHHFLLSQTEKPAVCYQAITKKLKICEEETGSTSIQ
B6: GST-NP.d4 (NPAC residues 152-553) (protein, not shown: a dimerising Fc or GST)
chain: SERGSKSPLKRAQEQSPRKRGRPPKDEKDLTIPESSTVKGMMAGPMAAFKWQPTASEPVKDADPHFHHFLLSQTEKPAVCYQAITKKLKICEEETGSTSIQAADSTAVNGSITPTDKKIGFLGLGLMGSGIVSNLLKMGHTVTVWNRTAEKCDLFIQEGARLGRTPAEVVSTCDITFACVSDPKAAKDLVLGPSGVLQGIRPGKCYVDMSTVDADTVTELAQVIVSRGGRFLEAPVSGNQQLSNDGMLVILAAGDRGLYEDCSSCFQAMGKTSFFLGEVGNAAKMMLIVNMVQGSFMATIAEGLTLAHVTGQSQQTLLDILNQGQLASIFLDQKCQNILQGNFKPDFYLKYIQKDLRLAIALGDAVNHPTPMAAAANEVYKRAKALDQSDNDMSAVYRAYIH
B7: GST-NP.d8 (NPAC residues 188-252) (protein, not shown: a dimerising Fc or GST)
chain: TVKGMMAGPMAAFKWQPTASEPVKDADPHFHHFLLSQTEKPAVCYQAITKKLKICEEETGSTSIQ

Key:
[1] = biological target: T1, Endogenous NPAC (human cells) (human) (UniProt Q49A26); test: tandem affinity purification from HeLa, immunoblot with anti-NPAC
T1 sequence: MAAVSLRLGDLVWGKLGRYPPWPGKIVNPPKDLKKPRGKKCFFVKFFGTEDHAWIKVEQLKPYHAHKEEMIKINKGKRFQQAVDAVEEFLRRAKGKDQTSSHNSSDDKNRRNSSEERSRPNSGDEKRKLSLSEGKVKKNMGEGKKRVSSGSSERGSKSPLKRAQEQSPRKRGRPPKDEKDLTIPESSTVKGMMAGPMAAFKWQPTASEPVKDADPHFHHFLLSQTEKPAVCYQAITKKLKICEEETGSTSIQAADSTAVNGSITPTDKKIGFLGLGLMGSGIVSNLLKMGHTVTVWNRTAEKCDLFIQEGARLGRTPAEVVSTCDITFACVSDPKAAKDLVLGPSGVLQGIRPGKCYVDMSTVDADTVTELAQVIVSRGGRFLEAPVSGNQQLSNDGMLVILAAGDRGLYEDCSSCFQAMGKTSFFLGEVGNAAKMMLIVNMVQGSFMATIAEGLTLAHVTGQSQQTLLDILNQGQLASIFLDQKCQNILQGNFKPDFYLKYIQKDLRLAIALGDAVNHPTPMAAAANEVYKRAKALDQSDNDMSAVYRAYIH

[2] = biological target: T1, Endogenous NPAC (human cells) (human); test: tandem affinity purification, immunoblot with anti-NPAC
[3] = biological target: T2, Recombinant His-NPAC (His6 tagged full-length NPAC) purified from E. coli (human) (UniProt Q49A26); test: GST pulldown of recombinant His-NPAC, SDS-PAGE, Coomassie
T2 sequence: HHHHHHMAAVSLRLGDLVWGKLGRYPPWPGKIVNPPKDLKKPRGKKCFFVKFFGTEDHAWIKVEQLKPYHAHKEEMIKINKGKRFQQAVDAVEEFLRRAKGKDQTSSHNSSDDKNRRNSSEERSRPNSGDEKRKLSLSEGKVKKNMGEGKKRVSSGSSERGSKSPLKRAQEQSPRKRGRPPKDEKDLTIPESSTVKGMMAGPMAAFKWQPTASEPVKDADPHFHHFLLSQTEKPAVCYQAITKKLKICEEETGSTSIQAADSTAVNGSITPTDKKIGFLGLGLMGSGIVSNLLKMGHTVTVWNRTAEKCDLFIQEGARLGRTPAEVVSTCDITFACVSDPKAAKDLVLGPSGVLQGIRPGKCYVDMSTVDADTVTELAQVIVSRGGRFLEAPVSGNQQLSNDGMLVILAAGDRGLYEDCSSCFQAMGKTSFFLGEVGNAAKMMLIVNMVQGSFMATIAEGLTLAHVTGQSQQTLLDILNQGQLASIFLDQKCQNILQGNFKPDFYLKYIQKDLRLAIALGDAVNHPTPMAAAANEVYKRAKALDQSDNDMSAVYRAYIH

[4] = biological target: T3, Recombinant 6x his tagged full-length LSD2 (human) (UniProt Q8NB78); test: GST pulldown of purified His-LSD2, SDS-PAGE, Coomassie
T3 sequence: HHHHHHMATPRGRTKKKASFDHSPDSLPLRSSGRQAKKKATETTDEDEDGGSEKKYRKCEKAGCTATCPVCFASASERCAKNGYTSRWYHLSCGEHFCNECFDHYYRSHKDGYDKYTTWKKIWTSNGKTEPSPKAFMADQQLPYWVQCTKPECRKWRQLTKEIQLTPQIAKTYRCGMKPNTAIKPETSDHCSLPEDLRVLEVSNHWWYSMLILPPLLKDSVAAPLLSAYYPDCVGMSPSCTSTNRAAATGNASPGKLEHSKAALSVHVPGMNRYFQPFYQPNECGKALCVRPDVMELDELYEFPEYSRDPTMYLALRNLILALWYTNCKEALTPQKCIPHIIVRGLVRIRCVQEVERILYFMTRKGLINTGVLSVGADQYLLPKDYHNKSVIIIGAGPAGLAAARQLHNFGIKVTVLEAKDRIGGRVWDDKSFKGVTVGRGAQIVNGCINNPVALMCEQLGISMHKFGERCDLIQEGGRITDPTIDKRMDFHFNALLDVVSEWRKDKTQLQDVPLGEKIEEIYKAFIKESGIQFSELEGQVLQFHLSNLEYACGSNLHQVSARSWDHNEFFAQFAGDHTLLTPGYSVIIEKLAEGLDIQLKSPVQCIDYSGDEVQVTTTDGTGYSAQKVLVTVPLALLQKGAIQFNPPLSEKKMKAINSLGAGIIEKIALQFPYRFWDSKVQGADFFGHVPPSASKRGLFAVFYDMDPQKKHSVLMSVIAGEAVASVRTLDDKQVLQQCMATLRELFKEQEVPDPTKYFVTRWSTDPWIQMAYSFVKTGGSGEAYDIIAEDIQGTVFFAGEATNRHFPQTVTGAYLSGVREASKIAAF

[5] = biological target: T3, Recombinant 6x his tagged full-length LSD2 (human); test: GST pulldown of purified full-length His-LSD2, SDS-PAGE, coomassie
[6] = biological target: T3, Recombinant 6x his tagged full-length LSD2 (human); test: GST pulldown of His-LSD2, SDS-PAGE, Coomassie
[7] = biological target: T3, Recombinant 6x his tagged full-length LSD2 (human); test: GST pulldown of purified His-LSD2, SDS-PAGE, coomassie (FIG. 2D)

Binder | binding [4] | binding [5] | further results
B1 | – | – | binding [1]: binds; binding [2]: binds
B2 | – | – | binding [3]: binds
B3 | binds | binds | –
B4 | binds | binds | –
B5 | binds | binds | binding [6]: binds; binding [7]: binds
B6 | binds | binds | –
B7 | – | binds | binding [6]: binds
